In paper PMC8636618:
These are yes or no findings as the source states them, for the method shown. In cells and extracts the contact can be indirect. Some binding calls cover weakened binding; strength is not graded here.

Protein sequences, listed by entry. Tags and fused reporters are not part of them. Residues count along the entry.
UniProt P02751, residues 32-2477: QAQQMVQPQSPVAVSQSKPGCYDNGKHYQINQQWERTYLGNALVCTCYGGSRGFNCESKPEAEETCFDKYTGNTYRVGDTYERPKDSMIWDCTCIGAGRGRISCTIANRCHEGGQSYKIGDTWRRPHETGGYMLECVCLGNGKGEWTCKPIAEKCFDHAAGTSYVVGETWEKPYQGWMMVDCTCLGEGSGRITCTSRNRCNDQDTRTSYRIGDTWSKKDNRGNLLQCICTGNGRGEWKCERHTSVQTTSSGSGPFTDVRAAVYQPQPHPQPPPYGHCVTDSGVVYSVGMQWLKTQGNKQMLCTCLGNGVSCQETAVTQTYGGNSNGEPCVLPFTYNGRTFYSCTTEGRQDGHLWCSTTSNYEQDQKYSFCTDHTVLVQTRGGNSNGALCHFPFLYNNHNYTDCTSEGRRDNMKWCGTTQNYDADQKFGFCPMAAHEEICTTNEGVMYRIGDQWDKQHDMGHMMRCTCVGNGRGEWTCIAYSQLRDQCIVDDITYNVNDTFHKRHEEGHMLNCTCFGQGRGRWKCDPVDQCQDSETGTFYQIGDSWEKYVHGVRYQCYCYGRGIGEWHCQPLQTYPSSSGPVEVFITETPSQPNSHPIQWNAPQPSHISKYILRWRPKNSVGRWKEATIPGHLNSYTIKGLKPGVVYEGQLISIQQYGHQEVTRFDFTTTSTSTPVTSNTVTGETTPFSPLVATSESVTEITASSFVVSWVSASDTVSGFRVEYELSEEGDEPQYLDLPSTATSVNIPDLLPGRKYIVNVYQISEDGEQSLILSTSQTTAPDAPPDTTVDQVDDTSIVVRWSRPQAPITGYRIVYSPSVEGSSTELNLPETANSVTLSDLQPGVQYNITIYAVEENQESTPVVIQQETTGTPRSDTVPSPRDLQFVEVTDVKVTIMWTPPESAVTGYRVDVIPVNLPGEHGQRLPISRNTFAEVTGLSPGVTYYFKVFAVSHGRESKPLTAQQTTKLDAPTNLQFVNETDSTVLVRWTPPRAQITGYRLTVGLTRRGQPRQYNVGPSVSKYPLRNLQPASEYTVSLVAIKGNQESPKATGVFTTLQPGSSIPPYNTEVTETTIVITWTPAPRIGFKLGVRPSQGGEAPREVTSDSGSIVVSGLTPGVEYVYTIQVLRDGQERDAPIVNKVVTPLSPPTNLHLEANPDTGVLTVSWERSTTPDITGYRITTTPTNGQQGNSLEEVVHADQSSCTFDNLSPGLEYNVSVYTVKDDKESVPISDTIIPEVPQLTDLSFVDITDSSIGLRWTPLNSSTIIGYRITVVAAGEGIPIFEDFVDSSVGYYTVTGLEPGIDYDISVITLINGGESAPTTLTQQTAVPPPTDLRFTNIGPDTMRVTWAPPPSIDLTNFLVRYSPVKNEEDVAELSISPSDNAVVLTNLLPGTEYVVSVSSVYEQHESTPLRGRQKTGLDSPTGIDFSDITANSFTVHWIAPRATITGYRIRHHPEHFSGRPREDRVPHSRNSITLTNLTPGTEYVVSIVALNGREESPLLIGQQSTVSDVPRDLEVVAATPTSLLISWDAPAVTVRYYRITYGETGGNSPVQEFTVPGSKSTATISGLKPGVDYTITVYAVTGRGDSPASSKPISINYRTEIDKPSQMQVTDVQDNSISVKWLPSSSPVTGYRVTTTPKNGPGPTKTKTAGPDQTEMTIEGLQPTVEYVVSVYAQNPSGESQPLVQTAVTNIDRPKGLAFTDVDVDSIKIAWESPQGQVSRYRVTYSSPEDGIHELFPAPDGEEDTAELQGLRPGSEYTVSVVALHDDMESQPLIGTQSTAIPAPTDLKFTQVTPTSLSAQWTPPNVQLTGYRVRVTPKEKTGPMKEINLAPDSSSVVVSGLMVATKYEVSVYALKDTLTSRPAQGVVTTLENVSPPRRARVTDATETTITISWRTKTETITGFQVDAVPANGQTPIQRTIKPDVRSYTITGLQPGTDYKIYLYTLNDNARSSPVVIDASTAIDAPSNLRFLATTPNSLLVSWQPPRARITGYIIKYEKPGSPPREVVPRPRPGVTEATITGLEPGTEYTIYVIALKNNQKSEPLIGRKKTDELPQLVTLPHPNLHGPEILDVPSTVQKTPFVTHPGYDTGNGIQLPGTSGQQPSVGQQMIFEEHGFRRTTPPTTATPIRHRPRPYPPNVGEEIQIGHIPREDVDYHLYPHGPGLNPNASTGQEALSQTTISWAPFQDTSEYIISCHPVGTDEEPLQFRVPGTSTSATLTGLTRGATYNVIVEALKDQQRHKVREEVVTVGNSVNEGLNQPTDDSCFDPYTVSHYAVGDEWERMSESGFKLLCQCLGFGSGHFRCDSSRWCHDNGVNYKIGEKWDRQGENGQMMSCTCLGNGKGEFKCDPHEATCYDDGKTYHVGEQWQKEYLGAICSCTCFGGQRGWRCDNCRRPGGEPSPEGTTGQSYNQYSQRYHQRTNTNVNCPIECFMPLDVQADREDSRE
UniProt Q9NZQ7, residues 19-290: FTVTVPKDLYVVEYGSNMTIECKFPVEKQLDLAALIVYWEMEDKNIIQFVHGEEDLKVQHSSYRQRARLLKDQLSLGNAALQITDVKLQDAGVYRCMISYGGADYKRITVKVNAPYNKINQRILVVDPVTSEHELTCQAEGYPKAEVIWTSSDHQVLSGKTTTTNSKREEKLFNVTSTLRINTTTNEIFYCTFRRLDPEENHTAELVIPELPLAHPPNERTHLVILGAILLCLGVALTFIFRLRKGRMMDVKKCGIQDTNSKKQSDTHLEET

Biological target: fibronectin (human (endogenous in HOP-62)) (UniProt P02751)
Assay: proximity ligation; in situ Duolink PLA on fixed HOP-62 and NCI-H23 cells; primary antibodies anti-PD-L1 (rabbit, clone 28-8) and anti-fibronectin (mouse, clone P1H11), 2 h at room temperature

binding: binds
Substance: PD-L1 (from UniProt Q9NZQ7 19-290)
